These are literature values, as cited in patent publication US10420731B1, “Method of synthesizing lignin-based nanocompositions” (KING SAUD UNIVERSITY, priority 2019, dated 2019).

For this series the following is noted: reported; cited from earlier work.

For `COc1cc(/C=C/C(=O)CC(=O)/C=C/c2ccc(O)c(OC)c2)ccc1O` [curcumin], the Water solubility entry was “less than 1 μg/mL”.
